Consider four substances from US20050097626A1.

No constants are given. Whether binding was seen depends on the method and setting. Binding seen in cells or lysates may run through a third protein. Some binding calls cover weakened binding; strength is not graded here.

Test [1] has as its target p53 (human) (UniProt P04637). As to the kind of experiment: reverse co-immunoprecipitation with anti-p53 antibodies DO-1 and PAb240 from transfected RKO cells, Western blot with anti-FLAG.
Test [2] deals with p53 (human) (UniProt P04637). As to the kind of experiment: co-immunoprecipitation from transfected RKO cells (legend of FIG. 10).
The target in test [3] is p53 (human) (UniProt P04637). As to the kind of experiment: co-immunoprecipitation with anti-ING5 antibody from lysate of RKO cells transfected with pcDNA3.1-ING5, Western blot for p53.
The target of test [4] is p53 (human) (UniProt P04637). Briefly: co-immunoprecipitation with anti-ING4 antibody from lysate of RKO cells transfected with pcDNA3.1-ING4, Western blot for p53.

FLAG-ING5 (from UniProt Q8WYH8 1-240): the binding entry in test [1] is “binds”.

p28ING5 (from UniProt Q8WYH8 1-240): the binding entry in test [2] and in test [3] was “binds” throughout.

Regarding FLAG-ING4 (from UniProt Q9UNL4 1-249), the binding entry in test [1] is “binds”.

On to p29ING4 (from UniProt Q9UNL4 1-249), for which the binding entry in test [2] and in test [4] was “binds” each time.
